These are yes or no findings as the source states them, for the method shown. Some binding calls cover weakened binding; strength is not graded here.
T1: purified native oat phytochrome A, Pfr form (oat) (UniProt P06593)
T1 sequence (looked up): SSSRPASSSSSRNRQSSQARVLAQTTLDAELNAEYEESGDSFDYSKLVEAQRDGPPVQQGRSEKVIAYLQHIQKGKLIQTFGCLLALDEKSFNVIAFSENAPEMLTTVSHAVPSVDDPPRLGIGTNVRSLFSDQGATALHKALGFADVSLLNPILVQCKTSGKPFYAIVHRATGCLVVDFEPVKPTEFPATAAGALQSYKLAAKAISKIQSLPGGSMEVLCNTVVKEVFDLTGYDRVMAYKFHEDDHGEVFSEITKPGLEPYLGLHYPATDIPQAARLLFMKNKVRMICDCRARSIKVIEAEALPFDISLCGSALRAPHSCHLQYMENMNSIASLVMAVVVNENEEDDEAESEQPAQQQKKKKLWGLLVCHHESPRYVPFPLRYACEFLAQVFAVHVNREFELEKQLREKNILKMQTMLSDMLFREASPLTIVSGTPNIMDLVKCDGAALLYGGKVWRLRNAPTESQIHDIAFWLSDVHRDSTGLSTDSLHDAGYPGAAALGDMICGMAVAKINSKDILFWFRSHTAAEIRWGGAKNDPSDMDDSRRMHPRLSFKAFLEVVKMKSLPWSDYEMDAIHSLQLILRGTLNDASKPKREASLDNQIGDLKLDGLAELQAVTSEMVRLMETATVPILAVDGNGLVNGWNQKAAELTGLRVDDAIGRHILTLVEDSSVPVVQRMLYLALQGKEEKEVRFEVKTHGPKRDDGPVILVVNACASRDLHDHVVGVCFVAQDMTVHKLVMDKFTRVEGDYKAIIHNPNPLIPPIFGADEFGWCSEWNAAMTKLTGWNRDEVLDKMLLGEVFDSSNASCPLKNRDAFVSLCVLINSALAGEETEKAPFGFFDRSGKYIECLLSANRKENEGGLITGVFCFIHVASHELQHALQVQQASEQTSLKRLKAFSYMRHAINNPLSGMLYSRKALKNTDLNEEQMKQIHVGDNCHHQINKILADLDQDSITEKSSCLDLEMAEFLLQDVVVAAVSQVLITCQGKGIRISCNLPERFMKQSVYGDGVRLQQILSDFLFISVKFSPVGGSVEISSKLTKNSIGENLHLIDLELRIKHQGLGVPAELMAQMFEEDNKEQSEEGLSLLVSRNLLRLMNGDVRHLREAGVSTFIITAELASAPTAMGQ


Columns and labels:
[1] = biological target: T1, purified native oat phytochrome A, Pfr form (oat); assay: immunoprecipitation with native oat phyA, western blot
[2] = biological target: T1, purified native oat phytochrome A, Pfr form (oat); assay: immunoprecipitation of native oat phyA with 14C-methionine-labeled NDPK2, scintillation counting

binding [1]	binding [2]	Binder
binds		NDPK2 kinase site mutant H197C (enzyme) ASSSAESGIFLPHLVASMEDVEETYIMVKPDGIQRGLVGEIISRFEKKGFKLIGLKMFQCPKELAEEHYKELSAKSFFLTLIEYITSGPVVCMAWEGVGVVASARKLIGKTDPLQAEPGTIRGDLAVQTGRNIVCGSDSPENGKREIGLWFKEGELCKWDSALATWLRE
binds		NDPK2 Kpn loop mutant P175S (enzyme) ASSSAESGIFLPHLVASMEDVEETYIMVKPDGIQRGLVGEIISRFEKKGFKLIGLKMFQCPKELAEEHYKELSAKSFFLTLIEYITSGPVVCMAWEGVGVVASARKLIGKTDSLQAEPGTIRGDLAVQTGRNIVHGSDSPENGKREIGLWFKEGELCKWDSALATWLRE

The remaining lines, values behind:

Binder	binding [1]	binding [2]
NDPK2 C-terminal deletion mutant R230Stop (enzyme) MEDVEETYIMVKPDGIQRGLVGEIISRFEKKGFKLIGLKMFQCPKELAEEHYKELSAKSFFLTLIEYITSGPVVCMAWEGVGVVASARKLIGKTDPLQAEPGTIRGDLAVQTGRNIVHGSDSPENGKREIGLWFKEGELCKWDSALATWL	binds	
Arabidopsis Nucleoside Di-Phosphate Kinase 2 (NDPK2), wild type (enzyme, 14C-labeled methionine incorporated (FIG. 1 binding assay)) ASSSAESGIFLPHLVASMEDVEETYIMVKPDGIQRGLVGEIISRFEKKGFKLIGLKMFQCPKELAEEHYKELSAKSFFLTLIEYITSGPVVCMAWEGVGVVASARKLIGKTDPLQAEPGTIRGDLAVQTGRNIVHGSDSPENGKREIGLWFKEGELCKWDSALATWLRE		binds
NDPK2 C-terminal deletion mutant L225Stop (enzyme) MEDVEETYIMVKPDGIQRGLVGEIISRFEKKGFKLIGLKMFQCPKELAEEHYKELSAKSFFLTLIEYITSGPVVCMAWEGVGVVASARKLIGKTDPLQAEPGTIRGDLAVQTGRNIVHGSDSPENGKREIGLWFKEGELCKWDSA	binds	

Reference: US20070136897A1, “Nucleic acid molecules encoding hyperactive nucleoside di-phosphate kinase 2 and uses thereof” (priority 2005, published 2007)
